# Data as given in PubChem BioAssay AID588358 (NMMLSC, 2011).
# Protein sequences, listed by entry. Tags and fused reporters are not part of them.
# UniProt P32926, whole entry, looked up: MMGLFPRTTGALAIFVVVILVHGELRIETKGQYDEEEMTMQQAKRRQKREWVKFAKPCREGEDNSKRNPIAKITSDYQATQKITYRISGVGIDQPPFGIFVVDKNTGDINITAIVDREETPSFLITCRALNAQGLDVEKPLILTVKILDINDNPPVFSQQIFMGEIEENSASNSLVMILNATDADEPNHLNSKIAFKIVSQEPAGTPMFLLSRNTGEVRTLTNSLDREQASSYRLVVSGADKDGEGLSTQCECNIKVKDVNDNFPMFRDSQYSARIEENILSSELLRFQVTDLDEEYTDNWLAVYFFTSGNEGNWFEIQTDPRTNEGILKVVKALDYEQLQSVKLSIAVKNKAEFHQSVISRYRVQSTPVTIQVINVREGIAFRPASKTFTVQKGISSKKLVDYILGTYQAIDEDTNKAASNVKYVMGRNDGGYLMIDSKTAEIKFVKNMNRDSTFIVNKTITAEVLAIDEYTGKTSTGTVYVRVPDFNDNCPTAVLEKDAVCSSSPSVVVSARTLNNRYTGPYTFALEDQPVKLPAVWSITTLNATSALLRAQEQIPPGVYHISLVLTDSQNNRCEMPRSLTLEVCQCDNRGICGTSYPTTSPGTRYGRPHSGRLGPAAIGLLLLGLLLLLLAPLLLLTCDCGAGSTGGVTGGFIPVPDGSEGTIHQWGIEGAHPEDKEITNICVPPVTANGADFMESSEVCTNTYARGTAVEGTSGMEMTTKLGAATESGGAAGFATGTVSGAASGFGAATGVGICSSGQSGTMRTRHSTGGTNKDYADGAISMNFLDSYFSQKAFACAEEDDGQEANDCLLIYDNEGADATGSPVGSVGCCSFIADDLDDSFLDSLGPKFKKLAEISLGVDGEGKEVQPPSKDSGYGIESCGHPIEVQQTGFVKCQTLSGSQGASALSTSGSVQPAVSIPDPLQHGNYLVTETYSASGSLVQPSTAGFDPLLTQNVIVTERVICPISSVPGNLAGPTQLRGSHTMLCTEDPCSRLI
# About 1,500 (0.48%) of roughly 310,000 compounds were called active. All entries are inconclusive by the source's own rule. Clear calls are listed elsewhere.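 How the source made its calls: active means binding more than 3 SD below its plate's average and above zero; inconclusive means below that plate limit but binding exactly zero; inactive means the rest.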
# Target: Desmoglein-3 (Homo sapiens) (UniProt P32926)
# Assay: blockers of anti-DSG3 scFv binding – biochemical, bead-based, flow cytometry, scFv-GFP, primary screen (AID 588358)
# Conditions: DSG3-coupled beads, at 10 µM
row,Compound,outcome
1,O=C(NCC1(N2CCOCC2)CCCCC1)c1cc(Br)ccc1Cl,inconclusive
2,COc1cccc(C(=O)N(c2cc(C)cc(C)c2)C2CCN(C(=O)OC(C)(C)C)CC2)c1,inconclusive
